Some entries share one result that the patent states for a list of compounds. At least one compound was matched to its structure with a doubt left.
Experiments:
Format in all cases: in vivo
[1] = tested on: Musca domestica; assay: Test Example 2: treated filter paper with sucrose bait, death rate of Musca domestica; conditions: 500 ppm test solution, 0.7 ml on filter paper; 10 female imagoes; after 24 hours
Experimental: (§1) Preparations of the present compounds (1), (2), (3), (4), (5), (6), (7), (8), (9), (10), (13), (18), (23), (24), (25), (26), (27), (28), (29), (30), (31), (32), (33), (34), (35), (38) and (39) obtained according to Formulation Example 44 were diluted so that the active ingredient concentration was 500 ppm to obtain test solutions.
A filter paper having a diameter of 5.5 cm was spread on the bottom of a polyethylene cup having a diameter of 5.5 cm and 0.7 ml of the test solution was added dropwise onto the filter paper. As a bait 30 mg of sucrose was uniformly placed on the filter paper. Into the polyethylene cup, 10 female imagoes of Musca domestica were released and the cup was sealed with a lid. After 24 hours, the number of surviving Musca domestica was examined and the death rate of the pest was calculated.
As a result, in treatments with the present compounds (1), (2), (3), (4), (5), (6), (7), (8), (9), (10), (13), (18), (23), (24), (25), (26), (27), (28), (29), (30), (31), (32), (33), (34), (35), (38) and (39), the death rate of the pest was 70% or more.

[2] = tested on: Nilaparvata lugens; assay: Test Example 1: rice seedlings absorb the test solution from the bottom of the cup, number of parasitic Nilaparvata lugens; conditions: 55.6 ppm active ingredient, 45 ml test solution absorbed by rice plants; thirty first-instar larvae released, counted after 6 days at 25° C.
[3] = tested on: Culex pipiens pallens; assay: Test Example 4: larvae released into treated water, death rate of Culex pipiens pallens; conditions: active ingredient concentration 3.5 ppm in water; 20 last-instar larvae; after one day
Experimental: as §1, with “(7),” for “(7), (8), (9), (10),”, “(13), (14), (15), (16),” for “(13),”, “(18), (22),” for “(18),”, “(35), (36),” for “(35),”
To 100 mL of ion-exchanged water, 0.7 ml of the test solution was added (active ingredient concentration: 3.5 ppm). Into the solution, 20 last-instar larvae of Culex pipiens pallens were released. After one day, the number of surviving Culex pipiens pallens was examined and the death rate of the pest was calculated.
As a result, in treatments with the present compounds (1), (2), (3), (4), (5), (6), (7), (13), (14), (15), (16), (18), (22), (23), (24), (25), (26), (27), (28), (29), (30), (31), (32), (33), (34), (35), (36), (38) and (39), the death rate of the pest was 90% or more.

Row | SMILES | death rate of the pest [1] [%] | number of the parasitic pests [2] | death rate of the pest [3] [%]
1 | C#CCCCCC(Cl)(C(=O)OC)S(=O)(=O)CCC(F)(F)F (stereo not drawn) [present compound (4), methyl 2-chloro-2-(3,3,3-trifluoropropylsulfonyl)-7-octyonate] | ≥ 70 | ≤ 3 | ≥ 90
2 | C#CCCCCC(C)(C(=O)OC)S(=O)(=O)CCC(F)(F)F (stereo not drawn) [present compound (6), methyl 2-methyl-2-(3,3,3-trifluoropropylsulfonyl)-7-octyonate] | ≥ 70 | ≤ 3 | ≥ 90
